{"source": "paper PMC10329249", "binders": {"B1": {"name": "immunoglobulin superfamily containing leucine-rich repeat (ISLR) (protein, UniProt O14498 19-428)", "chain": "CPEPCDCGEKYGFQIADCAYRDLESVPPGFPANVTTLSLSANRLPGLPEGAFREVPLLQSLWLAHNEIRTVAAGALASLSHLKSLDLSHNLISDFAWSDLHNLSALQLLKMDSNELTFIPRDAFRSLRALRSLQLNHNRLHTLAEGTFTPLTALSHLQINENPFDCTCGIVWLKTWALTTAVSIPEQDNIACTSPHVLKGTPLSRLPPLPCSAPSVQLSYQPSQDGAELRPGFVLALHCDVDGQPAPQLHWHIQIPSGIVEITSPNVGTDGRALPGTPVASSQPRFQAFANGSLLIPDFGKLEEGTYSCLATNELGSAESSVDVALATPGEGGEDTLGRRFHGKAVEGKGCYTVDNEVQPSGPEDNVVIIYLSRAGNPEAAVAEGVPGQLPPGLLLLGQSLLLFFFLTSF"}}, "molecular_target": "T1, N-acetylglucosaminyltransferase V (MGAT5) (human (endogenous in AGS)) (UniProt Q09328)", "T1 sequence": "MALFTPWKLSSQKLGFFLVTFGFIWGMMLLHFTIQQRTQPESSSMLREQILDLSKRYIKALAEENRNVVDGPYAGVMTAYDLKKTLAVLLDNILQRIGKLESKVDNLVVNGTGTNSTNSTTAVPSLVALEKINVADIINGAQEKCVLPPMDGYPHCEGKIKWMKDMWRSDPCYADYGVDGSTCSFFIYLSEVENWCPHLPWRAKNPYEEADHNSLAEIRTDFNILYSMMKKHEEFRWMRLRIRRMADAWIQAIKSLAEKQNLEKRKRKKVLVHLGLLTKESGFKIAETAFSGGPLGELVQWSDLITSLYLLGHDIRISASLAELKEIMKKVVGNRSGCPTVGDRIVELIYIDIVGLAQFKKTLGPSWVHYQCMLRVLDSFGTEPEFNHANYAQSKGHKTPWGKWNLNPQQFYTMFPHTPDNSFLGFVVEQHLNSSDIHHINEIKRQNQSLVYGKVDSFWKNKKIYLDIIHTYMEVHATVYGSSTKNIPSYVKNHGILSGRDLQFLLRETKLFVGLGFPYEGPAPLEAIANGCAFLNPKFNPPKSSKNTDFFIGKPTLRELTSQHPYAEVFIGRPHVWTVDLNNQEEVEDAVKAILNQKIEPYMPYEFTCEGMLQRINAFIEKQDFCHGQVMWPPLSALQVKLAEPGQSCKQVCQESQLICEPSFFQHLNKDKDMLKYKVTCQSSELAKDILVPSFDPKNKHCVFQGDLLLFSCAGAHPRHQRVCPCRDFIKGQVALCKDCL", "assay": "co-IP; cell lysates pre-cleared with protein A/G agarose beads for 3 hr at 4 °C; incubated with ISLR and MGAT5 antibodies overnight at 4 °C; precipitates analysed by Western blot", "note": "Results are given in words; binding and its absence hold for the method and conditions named. Binding seen in cells or lysates may run through a third protein. Some binding calls cover weakened binding; strength is not graded here. Tags and fused reporters may be left off the sequences shown.", "data": [{"binder": "B1", "values": [{"measurement": "binding", "result": "binds"}]}]}
